The whole screen tested about 310,000 compounds, of which about 17,000 (5.5%) were called active. The inconclusive results got no clear call from the source; some entries with a clear call stand among them for comparison. The call rests on the fitted dose curve; in most records, active means well fitted inhibition curve with a large enough effect; inconclusive means small, poorly fitted or top-dose-only effect, or effect the other way; inactive means no such curve, though single readings can be large or run the other way. A potency beside an inconclusive call is a rough fit, not a confirmed value.
What follows are molecules tested against Nuclear receptor ROR-gamma (Mus musculus) (UniProt P51450) (assay: qHTS for inhibitors of ROR gamma transcriptional activity). Conditions: Drosophila S2 Gal4-RORgamma UAS-luciferase reporter, 20 h; activity change, negative = inhibition: at 53.6 µM (top of the series).
How it was run: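 ROR gamma transcriptional activity was tracked as Gal4-UAS luciferase output in stably transfected Drosophila Schneider cells, with compound added 1 hr before 700 uM copper sulfate induction and a 20 hr ambient-temperature incubation.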
Further: nearly all actives have a fitted effect of over 60% in size.
On the % scale 0 is the no-effect control and ±100 the full control effect; potency means the concentration at half of the fitted maximal effect.

Amino acid sequences for entries named in this document (tags omitted). A change or cut given only in a name is not applied to a line headed by its entry.
UniProt P51450: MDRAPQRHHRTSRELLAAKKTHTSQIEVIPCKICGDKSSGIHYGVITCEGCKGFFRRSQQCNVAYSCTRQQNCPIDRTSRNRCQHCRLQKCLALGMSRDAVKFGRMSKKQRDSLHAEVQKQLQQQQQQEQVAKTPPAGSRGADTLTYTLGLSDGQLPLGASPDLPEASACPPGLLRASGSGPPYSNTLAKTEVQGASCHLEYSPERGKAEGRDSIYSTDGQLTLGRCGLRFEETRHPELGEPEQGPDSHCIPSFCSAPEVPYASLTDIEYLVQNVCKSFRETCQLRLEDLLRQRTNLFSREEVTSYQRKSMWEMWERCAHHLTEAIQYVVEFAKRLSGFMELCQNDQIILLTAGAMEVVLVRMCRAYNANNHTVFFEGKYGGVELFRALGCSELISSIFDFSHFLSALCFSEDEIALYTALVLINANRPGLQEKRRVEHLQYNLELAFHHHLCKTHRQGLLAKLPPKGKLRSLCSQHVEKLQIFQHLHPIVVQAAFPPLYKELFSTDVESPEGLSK

Potency, active:
Cc1cc(C(=O)NNC(=S)Nc2cccc(C(F)(F)F)c2)nn1C 15.8 µM
CCOc1ccc(/C(CCC(=O)O)=N/NC(=S)NCCc2ccccc2)cc1 7.94 µM
O=C(NC(=S)NCC1CCCO1)c1ccc(Cl)cc1Cl (centres undefined) 11.2 µM
Cc1ccc(-c2nc(CN(CC3CCC3)CC3CCCO3)c(C)o2)s1 (centres undefined) 11.2 µM
Cc1ccc2nc(SC(C(=O)Nc3ccc(F)cc3)c3ccccc3)[nH]c2c1 (centres undefined) 12.6 µM

Potency, inconclusive:
COc1cc2c(cc1OC)C(c1ccccc1C(F)(F)F)CC(=O)N2 (centres undefined) 11.2 µM [activator, partial curve]
CCC(CC)C(=O)Nc1cccc(C(=O)Nc2ccc(S(=O)(=O)Nc3ccc(C)cc3)cc2)c1 17.8 µM [activator, partial curve]
COc1cc2c(cc1NC(=S)Nc1cccc(C(F)(F)F)c1)oc1ccccc12 22.4 µM [inhibitor, single point]
O=C(Nc1cccc(F)c1)c1ccc(S(=O)(=O)NCC2CCCO2)cc1 (centres undefined) 3.16 µM [activator, partial curve]
CCOC(=O)c1c(C)nc(-c2ccccc2)nc1N 0.501 µM [activator, full curve, poor fit]
CC(=O)NNC(=S)NC(=O)C(c1ccccc1)c1ccccc1 10 µM [inhibitor, partial curve]

Quoted at random: two records from the list, in no set order.
Potency, inconclusive:
O=C(Nc1cccc(F)c1)c1ccc(S(=O)(=O)NCC2CCCO2)cc1 (centres undefined) 3.16 µM [activator, partial curve]
COc1cc2c(cc1NC(=S)Nc1cccc(C(F)(F)F)c1)oc1ccccc12 22.4 µM [inhibitor, single point]

Following part:

Activity change, negative = inhibition, inactive:
CN(C)c1ccc(C(=O)N2CCCC(N3CCN(Cc4ccc5c(c4)OCO5)CC3)C2)cc1 (centres undefined) 14.6%
Cc1ccc(-c2cc(C(=O)N/N=C/c3c(C)nn(C)c3C)c3ccccc3n2)c(C)c1 -4.21%
CCc1nn(CCCC(=O)N(C)Cc2ccccc2)c(=O)c2cc3occc3n12 -16.6%
COc1ccccc1NC(=O)CSCc1cc(=O)n2c(C)csc2n1 -32.9%
CC[C@H](C)[C@H](NC(=O)[C@H](CC(C)C)NC(=O)[C@H](CC(N)=O)NC(=O)[C@@H](NC(=O)[C@@H](N)Cc1ccc(O)cc1)[C@@H](C)CC)C(=O)N[C@@H](Cc1ccc(O)cc1)C(=O)N[C@@H](CCCN=C(N)N)C(=O)N[C@@H](CC(C)C)C(=O)N[C@@H](CCCN=C(N)N)C(=O)N[C@@H](Cc1ccc(O)cc1)C(N)=O -4.45%
COc1cccc(C(=O)OCC(=O)NC(=O)NC2CCCC2)c1O -23.1%
COC(=O)[C@@]1(Cc2ccc(F)cc2)[C@H]2c3cc(C(=O)N(C)C)n(Cc4cccc5ccccc45)c3C[C@H]2CN1C(=O)c1ccccc1 44.4%
NCCC[C@@H](CC(=O)N[C@@H]1CCNC[C@H]1C(=O)N[C@H](CC(=O)N[C@@H](CCC(=O)O)CC(=O)O)Cc1ccccc1)NC(=O)C[C@H](CO)NC(=O)[C@@H]1CCCC[C@H]1N 9.9%

— PubChem BioAssay AID2551 (National Center for Advancing Translational Sciences (NCATS), 2010)
